Laboratory results from patent US10328048B2, “Cafestol for treating diabetes” (Aarhus Universitet, priority 2014, dated 2019).
At least one compound was matched to its structure with a doubt left.

Tested on: Human skeletal muscle cells
Assay: Acute glucose uptake in human skeletal muscle cell line
Format: cell-based
Conditions: positive control, 10^−10 M, 100 nM insulin, 15 minutes
Protocol: Human skeletal muscle cells were seeded in 24 wells, ([…] cells/well) containing 1 mL growth medium (Promocell, Heidelberg, Germany). Once 70-90% confluence was reached, the growth medium was replaced by 1 mL differentiation medium (Promocell, Heidelberg, Germany). This medium was changed every 2nd day for two weeks until multinucleated syncytia was visible in microscope. Cells were washed twice with PBS. 300 μL of an alternatively modified-Krebs Ringer Buffer (containing 0.1% BSA with 0.1 mM glucose, 1.5 μCi deoxy-d-glucose 2-[1,2-3H(M)] (Perkin Elmer, 2740 Skovlunde, Denmark) and 100 nM insulin was put in each well. Five types of solutions were prepared: one with […] cafestol or rosiglitazone (control), a second with a 10^−6 M cafestol, a third with a 10^−10 M cafestol, a fourth with a 10^−12 M cafestol, and a fifth with a 10^-8 M rosiglitazone. Cells were kept on ice while adding medium. After 15 minutes of incubation at 37° C., 5.0% CO2, cells were washed twice with the modified-Krebs Ringer Buffer supplemented with 0.1% BSA and 50 mM glucose, stopping the incubation and glucose uptake. […] After adding 0.9 mL Hisafe II scintillator (Perkin Elmer, 2740 Skovlunde, Denmark), plates were stored in the dark for 12 hours before counted using a Trilux Micro Beta Counter (Wallac Oy, Turku, Finland). […]

CN(CCOc1ccc(CC2SC(=O)NC2=O)cc1)c1ccccn1 (stereo not shown) [Rosiglitazone, reference compound]
Glucose uptake, Counts per minute (± in SEM): 156.3 ± 1.888 Counts per minute
